Laboratory results: patent US20190151289A1, “Identification of Small Molecule Inhibitors of Jumonji AT-Rich Interactive Domain 1A (JARID1A) Histone Demethylase” (YALE UNIVERSITY, priority 2016, published 2019)
Structures were worked out from names or drawings and are uncertain.

Amino acid sequences for entries named in this document (tags omitted).
UniProt P29375, whole entry: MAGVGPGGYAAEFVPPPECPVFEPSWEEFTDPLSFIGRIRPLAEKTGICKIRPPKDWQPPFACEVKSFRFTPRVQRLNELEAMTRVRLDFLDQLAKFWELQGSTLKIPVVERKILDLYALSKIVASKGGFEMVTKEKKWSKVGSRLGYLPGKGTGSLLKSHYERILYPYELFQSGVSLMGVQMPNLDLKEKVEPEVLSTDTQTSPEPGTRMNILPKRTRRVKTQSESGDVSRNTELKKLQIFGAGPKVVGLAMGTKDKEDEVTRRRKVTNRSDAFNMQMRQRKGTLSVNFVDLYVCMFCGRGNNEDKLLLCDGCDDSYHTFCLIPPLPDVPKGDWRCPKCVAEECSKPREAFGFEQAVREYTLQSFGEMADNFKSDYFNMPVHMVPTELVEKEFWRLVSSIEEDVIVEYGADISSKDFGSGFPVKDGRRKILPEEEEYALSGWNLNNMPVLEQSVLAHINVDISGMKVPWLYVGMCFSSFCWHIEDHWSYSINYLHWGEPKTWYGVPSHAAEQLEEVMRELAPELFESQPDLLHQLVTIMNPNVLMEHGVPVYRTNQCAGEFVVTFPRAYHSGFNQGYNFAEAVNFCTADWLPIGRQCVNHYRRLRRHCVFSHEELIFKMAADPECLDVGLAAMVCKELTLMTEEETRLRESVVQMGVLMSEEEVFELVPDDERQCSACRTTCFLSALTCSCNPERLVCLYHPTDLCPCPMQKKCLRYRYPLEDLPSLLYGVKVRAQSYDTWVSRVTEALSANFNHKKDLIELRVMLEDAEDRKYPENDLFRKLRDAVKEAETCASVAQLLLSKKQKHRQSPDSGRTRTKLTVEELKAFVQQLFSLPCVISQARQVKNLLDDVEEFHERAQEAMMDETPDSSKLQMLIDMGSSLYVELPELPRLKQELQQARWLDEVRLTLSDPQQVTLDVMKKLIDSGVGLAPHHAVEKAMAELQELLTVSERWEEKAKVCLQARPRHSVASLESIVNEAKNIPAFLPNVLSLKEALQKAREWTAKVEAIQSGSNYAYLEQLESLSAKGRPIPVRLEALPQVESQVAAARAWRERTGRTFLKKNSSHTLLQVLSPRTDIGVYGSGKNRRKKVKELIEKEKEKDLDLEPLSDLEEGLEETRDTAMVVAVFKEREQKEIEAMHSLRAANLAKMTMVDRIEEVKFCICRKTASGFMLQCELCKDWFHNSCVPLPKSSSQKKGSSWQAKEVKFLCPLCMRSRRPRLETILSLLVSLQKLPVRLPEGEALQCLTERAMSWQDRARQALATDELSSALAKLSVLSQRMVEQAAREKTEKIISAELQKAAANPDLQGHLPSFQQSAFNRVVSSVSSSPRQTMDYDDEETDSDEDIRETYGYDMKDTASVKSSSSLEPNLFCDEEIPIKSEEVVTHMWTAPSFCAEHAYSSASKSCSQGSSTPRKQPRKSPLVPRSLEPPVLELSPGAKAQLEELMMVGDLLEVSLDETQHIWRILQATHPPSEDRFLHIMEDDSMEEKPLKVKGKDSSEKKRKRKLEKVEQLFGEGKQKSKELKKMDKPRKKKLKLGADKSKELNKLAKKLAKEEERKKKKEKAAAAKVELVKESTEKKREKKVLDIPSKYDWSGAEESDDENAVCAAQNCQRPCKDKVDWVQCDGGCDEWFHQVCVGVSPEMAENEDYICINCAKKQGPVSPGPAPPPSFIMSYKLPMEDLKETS

Biological target: full-length FLAG-KDM5A (Homo sapiens, UniProt P29375)
Assay: AlphaScreen KDM5A demethylation assay (bio-H3K4me3 peptide)
Conditions: read-out: KDM5A IC50; inhibitors found by high throughput screening

`Sc1nnc(-c2ccncc2)n1-c1ccc2c(c1)OCCO2` gave an IC50 of 367 nM.
